Test [1] has as its target SHP-1 (human (endogenous in SH-SY5Y)) (UniProt P29350). In words: co-IP; SHP-1 immunoprecipitated from whole cell extracts (500 ug) of untreated TrkAIII SH-SY5Y cells, Western blot.
Test [2] has the same target. In words: co-IP; SHP-1 immunoprecipitated from whole TrkAIII SH-SY5Y cell extracts (500 ug), Western blot; cells treated with TRAIL 200 ng/ml (6 hours in the text, 12 hours in the legend); c-Src also found from untreated cells.

Amino acid sequences for entries named in this document (tags omitted). A change or cut given only in a name is not applied to a line headed by its entry. Chains listed by the source or under a name are the forms on record and can include a tag or linker.
UniProt P29350: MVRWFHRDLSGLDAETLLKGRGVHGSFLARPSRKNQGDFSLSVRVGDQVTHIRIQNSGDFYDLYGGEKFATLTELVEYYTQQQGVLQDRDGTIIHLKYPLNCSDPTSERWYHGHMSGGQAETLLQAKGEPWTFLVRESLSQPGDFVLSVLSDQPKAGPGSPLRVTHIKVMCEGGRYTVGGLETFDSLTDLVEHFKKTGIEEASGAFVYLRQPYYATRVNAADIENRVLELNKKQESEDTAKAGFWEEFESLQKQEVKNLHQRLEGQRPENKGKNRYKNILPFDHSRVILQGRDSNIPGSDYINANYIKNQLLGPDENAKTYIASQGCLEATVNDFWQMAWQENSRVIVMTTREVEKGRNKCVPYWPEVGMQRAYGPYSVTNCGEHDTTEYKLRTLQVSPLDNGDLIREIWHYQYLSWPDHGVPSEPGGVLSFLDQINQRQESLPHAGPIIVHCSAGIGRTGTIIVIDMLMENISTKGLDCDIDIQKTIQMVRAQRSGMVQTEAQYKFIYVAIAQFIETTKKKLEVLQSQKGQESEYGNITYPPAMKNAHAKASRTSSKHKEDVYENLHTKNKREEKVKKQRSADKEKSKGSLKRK
TrkAIII (alternative TrkAIII splice variant of tropomyosin related kinase A), Y674/675 phosphorylated (P04629-4, form named): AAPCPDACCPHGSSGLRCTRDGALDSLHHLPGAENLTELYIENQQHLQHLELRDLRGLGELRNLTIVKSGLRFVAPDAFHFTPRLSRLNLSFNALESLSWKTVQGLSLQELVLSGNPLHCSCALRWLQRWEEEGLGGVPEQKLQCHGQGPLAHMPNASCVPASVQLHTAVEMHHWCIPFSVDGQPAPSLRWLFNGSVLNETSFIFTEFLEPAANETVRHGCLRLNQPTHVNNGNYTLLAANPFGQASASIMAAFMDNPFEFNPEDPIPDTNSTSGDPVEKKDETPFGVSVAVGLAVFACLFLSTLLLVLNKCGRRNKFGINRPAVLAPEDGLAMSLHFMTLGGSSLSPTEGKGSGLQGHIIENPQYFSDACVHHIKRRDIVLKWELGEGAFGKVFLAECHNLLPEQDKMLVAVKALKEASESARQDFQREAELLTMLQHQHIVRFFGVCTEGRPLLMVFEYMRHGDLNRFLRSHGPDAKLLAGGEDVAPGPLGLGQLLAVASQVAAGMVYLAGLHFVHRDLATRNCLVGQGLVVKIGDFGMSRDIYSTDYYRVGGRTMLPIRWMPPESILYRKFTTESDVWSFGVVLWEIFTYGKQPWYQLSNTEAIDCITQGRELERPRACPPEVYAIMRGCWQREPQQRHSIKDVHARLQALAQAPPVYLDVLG

Results are given in words; binding and its absence hold for the method and conditions named. In cells and extracts the contact can be indirect. Some results given as binding are weak or reduced against the parent protein; the word gives no strength.

Consider one substance from article PMC5348358.

As for “TrkAIII (alternative TrkAIII splice variant of tropomyosin related kinase A), Y674/675 phosphorylated (from UniProt P04629-4 33-698) (receptor)”, the binding result in test [1] is “no binding (condition: untreated cells (without TRAIL))”; in test [2], “binds”.
